Results are given in words; binding and its absence hold for the method and conditions named. In cells and extracts the contact can be indirect. These calls come from enrichment with a bait or labelling near it, and not all partners need be listed. A no says only that the protein was not detected with the bait. Sequences can lack the tags named with a protein.
T1: GTPBP5::FLAG (C-terminal FLAG-tagged GTPBP5) (human) (UniProt Q9H4K7)
T1 sequence: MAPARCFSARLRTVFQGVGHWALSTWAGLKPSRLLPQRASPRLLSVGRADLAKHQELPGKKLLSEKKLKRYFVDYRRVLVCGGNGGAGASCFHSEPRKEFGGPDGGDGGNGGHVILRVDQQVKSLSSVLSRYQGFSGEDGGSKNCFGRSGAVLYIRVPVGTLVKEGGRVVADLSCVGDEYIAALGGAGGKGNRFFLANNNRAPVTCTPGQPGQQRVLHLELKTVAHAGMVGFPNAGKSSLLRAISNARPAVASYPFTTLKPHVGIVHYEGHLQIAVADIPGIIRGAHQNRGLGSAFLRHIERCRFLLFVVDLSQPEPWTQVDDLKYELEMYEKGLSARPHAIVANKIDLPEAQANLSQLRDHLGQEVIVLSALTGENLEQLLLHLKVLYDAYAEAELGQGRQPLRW


Biological target: T1, GTPBP5::FLAG (C-terminal FLAG-tagged GTPBP5) (human)
Assay: affinity purification with mass spectrometry; FLAG-IP from lysate of mitochondria isolated from HEK293T expressing GTPBP5::FLAG (48 h), buffers with 5 mM MgCl2, elution with 3X FLAG peptide; label-free quantitative mass spectrometry against control HEK293T without FLAG protein, n = 3

| binding | Binder |
| --- | --- |
| no binding | MRM3 (enzyme, UniProt Q9HC36 41-420) VFPSGEVVEQKRAPGKQPRKAPSEASAQEQREKQPLEESASRAPSTWEESGLRYDKAYPGDRRLSSVMTIVKSRPFREKQGKILLEGRRLISDALKAGAVPKMFFFSRLEYLKELPVDKLKGVSLIKVKFEDIKDWSDLVTPQGIMGIFAKPDHVKMTYPKTQLQHSLPLLLICDNLRDPGNLGTILRSAAGAGCSKVLLTKGCVDAWEPKVLRAGMGAHFRMPIINNLEWETVPNYLPPDTRVYVADNCGLYAQAEMSNKASDHGWVCDQRVMKFHKYEEEEDVETGASQDWLPHVEVQSYDSDWTEAPAAVVIGGETYGVSLESLQLAESTGGKRLLIPVVPGVDSLNSAMAASILLFEGKRQLRGRAEDLSRDRSYH |
| no binding | FASTKD4 (protein, UniProt Q969Z0 108-631) SHLLSEKPEDKGLLIQDAHFHQLLCLLNSQIASVWHGTLSKLLGSLYALGIPKASKELQSVEQEVRWRMRKLKYKHLAFLAESCATLSQEQHSQELLAELLTHLERRWTEIEDSHTLVTVMMKVGHLSEPLMNRLEDKCLELVEHFGPNELRKVLVMLAAQSRRSVPLLRAISYHLVQKPFSLTKDVLLDVAYAYGKLSFHQTQVSQRLATDLLSLMPSLTSGEVAHCAKSFALLKWLSLPLFEAFAQHVLNRAQDITLPHLCSVLLAFARLNFHPDQEDQFFSLVHEKLGSELPGLEPALQVDLVWALCVLQQAREAELQAVLHPEFHIQFLGGKSQKDQNTFQKLLHINATALLEYPEYSGPLLPASAVAPGPSALDRKVTPLQKELQETLKGLLGSADKGSLEVATQYGWVLDAEVLLDSDGEFLPVRDFVAPHLAQPTGSQSPPPGSKRLAFLRWEFPNFNSRSKDLLGRFVLARRHIVAAGFLIVDVPFYEWLELKSEWQKGAYLKDKMRKAVAEELAK |
| binds | mitochondrial rRNA methyltransferase 2 (MRM2) (enzyme, UniProt Q9UI43 19-246) TVGSRCKNRTGAEHLWLTRHLRDPFVKAAKVESYRCRSAFKLLEVNERHQILRPGLRVLDCGAAPGAWSQVAVQKVNAAGTDPSSPVGFVLGVDLLHIFPLEGATFLCPADVTDPRTSQRILEVLPGRRADVILSDMAPNATGFRDLDHDRLISLCLTLLSVTPDILQPGGTFLCKTWAGSQSRRLQRRLTEEFQNVRIIKPEASRKESSEVYFLATQYHGRKGTVKQ |

From PMC7797037
